These are yes or no findings as the source states them, for the method shown. In cells and extracts the contact can be indirect. Here binding means that the protein was enriched with, or labelled near, the bait; the list need not be complete.
Target: β-catenin (mouse (endogenous in TKO HCC cells)) (UniProt Q02248)
Test: affinity purification with mass spectrometry; IP of β-catenin from TKO HCC cells (CTRL and shEcad2), SDS-PAGE, tryptic digest, LC-MS/MS on LTQ Orbitrap Elite

Sequences of proteins named here, by UniProt entry; tags and fusion partners are left off. Residues count along the entry.
UniProt Q02248: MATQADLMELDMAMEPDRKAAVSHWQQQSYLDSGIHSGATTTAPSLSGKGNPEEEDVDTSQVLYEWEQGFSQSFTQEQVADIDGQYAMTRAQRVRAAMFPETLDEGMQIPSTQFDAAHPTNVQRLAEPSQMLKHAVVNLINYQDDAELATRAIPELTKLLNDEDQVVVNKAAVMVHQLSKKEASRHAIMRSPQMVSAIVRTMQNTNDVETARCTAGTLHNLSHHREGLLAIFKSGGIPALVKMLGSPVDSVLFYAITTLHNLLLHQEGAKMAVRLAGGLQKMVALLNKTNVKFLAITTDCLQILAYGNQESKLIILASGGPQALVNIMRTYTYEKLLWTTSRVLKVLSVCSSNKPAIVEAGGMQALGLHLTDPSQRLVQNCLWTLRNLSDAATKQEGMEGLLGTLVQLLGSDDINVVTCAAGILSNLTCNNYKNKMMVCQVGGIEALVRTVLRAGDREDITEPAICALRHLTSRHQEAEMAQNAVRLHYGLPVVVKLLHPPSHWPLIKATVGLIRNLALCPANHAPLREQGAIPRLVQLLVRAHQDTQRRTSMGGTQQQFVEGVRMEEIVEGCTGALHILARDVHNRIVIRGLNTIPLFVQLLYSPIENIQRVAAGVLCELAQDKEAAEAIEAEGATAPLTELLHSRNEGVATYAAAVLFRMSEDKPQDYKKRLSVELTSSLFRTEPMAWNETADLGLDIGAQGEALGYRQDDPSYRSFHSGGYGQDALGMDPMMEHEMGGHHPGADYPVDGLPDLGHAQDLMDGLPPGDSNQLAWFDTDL
UniProt P15116, residues 160-906: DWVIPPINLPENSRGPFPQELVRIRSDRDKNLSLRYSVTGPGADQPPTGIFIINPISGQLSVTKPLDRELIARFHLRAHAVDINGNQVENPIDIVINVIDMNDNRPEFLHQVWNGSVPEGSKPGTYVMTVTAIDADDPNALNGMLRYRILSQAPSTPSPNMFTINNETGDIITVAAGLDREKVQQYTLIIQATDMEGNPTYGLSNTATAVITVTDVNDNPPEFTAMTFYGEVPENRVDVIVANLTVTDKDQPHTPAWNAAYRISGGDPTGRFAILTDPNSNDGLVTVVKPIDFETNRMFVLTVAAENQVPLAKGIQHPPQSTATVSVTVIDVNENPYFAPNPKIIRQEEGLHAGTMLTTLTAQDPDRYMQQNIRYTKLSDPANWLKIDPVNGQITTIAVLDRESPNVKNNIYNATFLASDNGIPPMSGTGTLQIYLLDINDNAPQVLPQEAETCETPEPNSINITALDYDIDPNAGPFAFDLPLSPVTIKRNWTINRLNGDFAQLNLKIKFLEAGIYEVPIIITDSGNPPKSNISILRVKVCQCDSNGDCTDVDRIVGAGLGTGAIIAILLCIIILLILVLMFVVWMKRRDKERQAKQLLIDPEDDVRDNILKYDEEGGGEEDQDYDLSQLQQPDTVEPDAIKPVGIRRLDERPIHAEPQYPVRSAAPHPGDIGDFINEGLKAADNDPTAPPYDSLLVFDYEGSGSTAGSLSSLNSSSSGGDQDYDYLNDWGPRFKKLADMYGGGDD

binding: binds
Substance: N-cadherin (from UniProt P15116 160-906)

Source: publication PMC6478918
